# Where a name gives a salt, the structure may show the parent alone. Read-outs that look alike come from different tables or passages of the source.
# System: P. falciparum
# Assay: Parasite growth inhibition assay (SYBR Gold, 72 h)
# Format: cell-based, Plasmodium falciparum 3D7
# Experimental: Use of human erythrocytes was approved by the La Trobe University Research Ethics Committee (ethics number HEC17‐013) and an Australian Red Cross Blood Service Agreement (Deed 19-05VIC-01). Red blood cell populations are intrinsically heterogeneous and variable between donors, therefore each experiment presented in this study was conducted a minimum of three independent times, each with a different batch of blood. Human red cells were processed as soon as possible upon collection to minimize erythrocyte aging. Naïve (non-infected) erythrocytes and Plasmodium falciparum 3D7-infected erythrocytes were cultured at 37°C, in low oxygen conditions (1% O2, 5% CO2, 94% N2), at 4% or 0.4% hematocrit, in incomplete RPMI media (iRPMI: RPMI 1640 HEPES, 50 mg/L hypoxanthine, 10 mg/L gentamicin, pH 6.74), complete RPMI media (cRPMI: incomplete RPMI supplemented with 2.25 g/L sodium bicarbonate and 5 g/L AlbuMAX II), or Ringer solution (1mM CaCl2, 5mM glucose, 32 mM HEPES pH 7.4, 5 mM KCl, 1mM MgSO4, 125mM NaCl). P. falciparum standard in vitro culture conditions were conducted as previously described ([Trager and Jensen, 1976]).
# Compound-induced parasite growth inhibition was measured as previously described ([Morahan et al., 2020]). Briefly, an asynchronous parasite culture at 0.25% parasitemia and 2% hematocrit was incubated in a 96-well plate with a two-fold serial dilution of compound over 72 h in standard culture conditions (cRPMI, 37°C, low oxygen). Compounds (at 10 mM in DMSO) were added to the first well of the dilution series to produce a 50 µM drug concentration (and 0.5% (v/v) DMSO) and diluted two-fold until a concentration of 0.19 nM compound was reached. Each condition was conducted in triplicates, subject to a freeze/thaw cycle and incubated with the DNA intercalant SYBR Gold following manufacturer instructions (SYBR™ Gold Nucleic Acid Stain, Invitrogen). The average fluorescence between triplicates was measured at 495 nm using a CLARIOstar® microplate reader and analyzed as a proxy of parasite replication.
SMILES,"IC50 (Plasmodium falciparum, asynchronous culture, cRPMI, up to 50 µM, N=5, read-out: P. falciparum IC50) [µM]","IC50 (asynchronous culture, cRPMI, up to 50 µM, N=5, listed as amiodarone, read-out: P. falciparum IC50) [µM]","IC50 (asynchronous culture, cRPMI, up to 50 µM, N=5, read-out: P. falciparum IC50) [µM]","IC50 (read-out: P. falciparum IC50, asynchronous culture, cRPMI, up to 50 µM, N=5) [µM]","IC50 (read-out: P. falciparum IC50, asynchronous culture, cRPMI, up to 50 µM, N=5, listed as benzethonium) [µM]"
"CCCCc1oc2ccccc2c1C(=O)c1cc(I)c(OCCN(CC)CC)c(I)c1 [Amiodarone, amiodarone HCl]",~2,≤ 2,2.1,–,–
"CC(C)(C)CC(C)(C)c1ccc(OCCOCC[N+](C)(C)Cc2ccccc2)cc1 [Benzethonium, benzethonium chloride]",–,–,–,0.49,≤ 2

# Reference: PMC7994622, “Eryptosis and Malaria: New Experimental Guidelines and Re-Evaluation of the Antimalarial Potential of Eryptosis Inducers” (Frontiers in Cellular and Infection Microbiology, 2021)
